Values quoted from earlier work in US7022707B2, “Piperazine derivatives” (Hoffman-La Roche Inc., priority 2000, dated 2006).
At least one compound was matched to its structure with a doubt left.

System: rats
Settings: literature; cited from earlier work

## FC(F)(F)c1cccc(N2CCNCC2)c1 [TFMPP, trifluoromethylphenylpiperazine]
  food intake in rats: reduce food intake
